Measurements published in patent US20240067931A1, “METHODS AND COMPOSITIONS FOR SMALL MOLECULE BASED PANCREATIC BETA CELL INDUCTION” (Trailhead Biosystems Inc., priority 2022, published 2024).
At least one compound was matched to its structure with a doubt left. Some entries share one result that the patent states for a list of compounds.

Tests used:
Type in all cases: cell-based, human
GCG (alpha cell marker) = experiment: HD-DoE stage 3 screening, heat map and dynamic profiling: GCG; settings: heat map FIG. 21, dynamic profiling FIGS. 22-25
Source text: (§1) FIG. 19 Heat map showing descending factor contributions for the induction of INS. The three HD-DoE experiments shown in Example 17 were used for modeling the maximal expression of several other genes, including GCG, SST, PDX1, PAX4, MAFA and NKX2.2, which are indicative of endocrine cell types with a focus on pancreatic beta cells as indicated at the top of the heat map. The relative factor contributions for the activation of these different genes were then used to generate a secondary heat map representative of the gene induction logic and then ranked according to the compound's ability to induce INS. Dark blue colors indicate a high inductive capacity, while dark red colors indicative of a highly repressive capacity for activation of the genes are shown.
(§2) FIG. 21 Heat map showing descending factor contributions for the induction of INS. The four HD-DoE experiments shown in Example 19 were used for modeling the maximal expression of several other genes. These genes were GCG, SST, PDX1, PAX4, MAFA and NKX2.2. These genes are all indicative of endocrine cell types with a focus on the beta cell as indicated at the top of the heatmap. […]
(§3) FIGS. 22-25. […] One of the HD-DoE experiments shown in Example 19 was analyzed using MODDE software and dynamic profiling of the endocrine products GCG, SST and INS are shown.

SST (delta cell marker) [1] = experiment: HD-DoE stage 3 screening, heat map and dynamic profiling: SST; settings: heat map FIG. 21, dynamic profiling FIGS. 22-25
Source text: as §1, §2, §3

[2] = tested on: GCG, SST, PDX1, PAX4, MAFA and NKX2.2; experiment: HD-DoE stage 3 screening, heat map and dynamic profiling of endocrine and beta cell genes
Source text: as §1, §2
FIGS. 22-25. […] One of the HD-DoE experiments shown in Example 19 was analyzed using MODDE software and dynamic profiling of the endocrine products GCG, SST and INS are shown. […]

SST (delta cell marker) [3] = experiment: HD-DoE on DFE culture, dynamic profiling of endocrine sub-type markers: SST; settings: PDX1 optimizer, dynamic profiling FIG. 14
INS = experiment: HD-DoE screening for optimal de novo beta cell induction (stage 3 cultures, 3 day perturbation), INS induction; settings: for effect on INS induction: heat map FIG. 21, dynamic profiling FIGS. 22-25
Method: FIG. 18 HD-DoE screening for optimal de novo beta cell induction. Culture of the iPSC cell line CR01 were differentiated to a DFE state for 3 days. These cultures were then incubated in the presence of stage 2 media for an additional 3 days. These cultures were then incubated for an additional 5 days in the presence of GSI-XX and A8301 followed by a 3 day incubation in the presence of a perturbation matrix composed of the compounds indicated in the different panels. This was performed 3 separate times (once for each of the 3 panels). These HD-DoE experiments were then analyzed using MODDE software for maximal induction of insulin. The predicted results are shown.
FIG. 20 HD-DoE screening for optimal de novo beta cell induction. Cultures of the iPSC cell line CR01 were differentiated to a DFE state for 3 days. These cultures were then incubated in the presence of stage 2 media for an additional 3 days. These cultures were then incubated for an additional 5 days in the presence of GSI-XX and A8301 followed by a 3 day incubation in the presence of a perturbation matrix composed of the compounds indicated in the different panels. This was performed 4 separate times (once for each of the 4 panels). These HD-DoE experiments were then analyzed using MODDE software for the maximal induction of Insulin. The predicted results are shown.
FIGS. 22-25. Dynamic profiling of endocrine sub-type regulation. One of the HD-DoE experiments shown in Example 19 was analyzed using MODDE software and dynamic profiling of the endocrine products GCG, SST and INS are shown.
To define factors contributing to the activation of INS, a series of HD-DoE perturbations were performed using factors chosen to target different aspects of beta cell biology.
To define factors contributing to the activation of INS, a series HD-DoE perturbations were performed using factors chosen to target different aspects of beta cell biology.

## Oc1c2ccccc2c2c3c(cccc13)N=N2 [SP600125]
GCG (alpha cell marker)
  effect on GCG induction / alpha cell fate: increased
SST (delta cell marker) [1]
  effect on SST induction / delta cell fate: increased
[2]; heat map FIG. 21, dynamic profiling FIGS. 22-25
  effect on beta cell state / endocrine fate: positive inducer of endocrine fate

## CC1=C(/C=C/C(C)=C/C=C/C(C)=C/C(=O)O)C(C)(C)CCC1 [retinoic acid]
SST (delta cell marker) [3]
  effect on activation of SST: strong inhibitory effect

## CO[C@H]1C[C@@H]2CC[C@@H](C)[C@@](O)(O2)C(=O)C(=O)N2CCCC[C@H]2C(=O)O[C@H]([C@H](C)C[C@@H]2CC[C@@H](O)[C@H](OC)C2)CC(=O)[C@H](C)/C=C(\C)[C@@H](O)[C@@H](OC)C(=O)[C@H](C)C[C@H](C)/C=C/C=C/C=C/1C [Rapamycin]
INS; Example 17, three HD-DoE panels, FIG. 18
  contribution factor, activation of INS: 5-10
[2]; heat maps FIG. 19 and FIG. 21
  effect on beta cell specific transcription factors / all genes optimized: beneficial for all genes optimized

## CN(CCOc1ccc(CC2SC(=O)NC2=O)cc1)c1ccccn1 (stereo not shown) [rosiglitazone]
INS
  effect on INS induction: significantly increased INS levels
GCG (alpha cell marker)
  effect on GCG induction / alpha cell fate: inhibited
SST (delta cell marker) [1]
  effect on SST induction / delta cell fate: inhibited

## c1cc(-c2cnn3cc(-c4ccc(OCCN5CCCCC5)cc4)cnc23)ccn1 [dorsomorphin]
INS
  effect on INS induction: positive effect on INS induction, though with far less contribution
